# Data taken from PubChem BioAssay AID540256 (National Center for Advancing Translational Sciences (NCATS), 2011).
# About 3,700 (1.2%) of roughly 300,000 compounds were called active. This list was built around the results that the source calls inconclusive (neither active nor inactive); the mix of calls is not that of the screen. The call rests on the fitted dose curve; tested in HEK293 cells. Potencies of inconclusive entries are doubtful fits and often do not repeat.
# Experiment: qHTS for Inhibitors of binding or entry into cells for Lassa Virus; further: nearly all actives have a fitted effect of over 50% in size
# Conditions: Lassa virus pseudotype entry inhibition, cell reporter; series mostly up to 37.9 µM
# Potency means the concentration at half of the fitted maximal effect.
row,SMILES,Potency
1,O=C(Nc1ccc2c(c1)OCCO2)C(=O)c1c[nH]c2ccccc12,"inconclusive: 1.41 µM [inhibitor, partial curve, poor fit]"
2,O=C(Oc1ccccc1/C=C\C(=O)c1cc2ccccc2o1)c1cccc(F)c1,"inconclusive: 10 µM [inhibitor, single point]"
3,Cc1c(Cl)cccc1NC(=S)C(=C([O-])c1ccc(Cl)s1)[n+]1ccccc1,inactive
4,CCCCC/C=N/NC(=O)c1[nH]c2ccc([N+](=O)[O-])cc2c1C,"inconclusive: 31.6 µM [activator, single point]"
5,O=C(CCCCCNc1nc(=S)[nH]c2ccccc12)NCCC1=CCCCC1,"inconclusive: 35.5 µM [inhibitor, single point]"
6,Cc1ccc(-n2c(=O)[nH]cc(C(=O)Nc3ccc4c(c3)OCCO4)c2=O)cc1,"inconclusive: 18.3 µM [inhibitor, partial curve, poor fit]"
7,COc1ccc(C2C(=O)N(C3CCC(C)CC3)CC(=O)N2Cc2ccccc2Cl)cc1OC (configuration not stated),inactive
8,N#CCCNS(=O)(=O)c1ccc(C(=O)OCC2CCCCC2)cc1,"inconclusive: 2.82 µM [inhibitor, full curve]"
9,C/C(=N\Nc1cc(C)nc(-c2ccccc2O)n1)c1ccccc1,inactive
10,CC(=O)c1ccc(NC(=O)C2CCCN(c3ncnc4c3nc3n4CCCCC3)C2)cc1 (configuration not stated),"inconclusive: 5.62 µM [inhibitor, single point]"
11,CNS(=O)(=O)c1cccc(C(=O)NNC(=O)CN(C)S(=O)(=O)c2ccc(Cl)cc2)c1,"inconclusive: 3.16 µM [inhibitor, single point]"
12,CC(=O)CC1(O)C(=O)N(Cc2ccccc2)c2ccccc21 (configuration not stated),"inconclusive: 16.4 µM [activator, partial curve, poor fit]"
13,O=C(Nc1cccc(F)c1)C1CCN(C(=O)NCc2ccccc2)CC1,inactive
14,CCN(CC)CCCNc1nc2cc(OC)c(OC)cc2c2nc(-c3cccnc3)nn12,"inconclusive: 5.8 µM [inhibitor, full curve, poor fit]"
15,CC(C)C(NC(=O)OCc1ccccc1)C(=O)N1CCOCCOCCOCC1 (configuration not stated),"inconclusive: 2.51 µM [inhibitor, partial curve, poor fit]"
16,CCOC(=O)C1(Cc2ccccc2)CCN(Cc2cnn(-c3ccccc3)c2)CC1,"inconclusive: 35.5 µM [inhibitor, single point]"
17,OC(COC(c1ccccc1)c1ccccc1)CN1CCc2ccccc2C1 (configuration not stated),inactive
18,CCn1cc(C(=O)NCC2CCCO2)c(=O)c2cc(F)c(N3CCN(C)CC3)cc21 (configuration not stated),inactive
19,O/N=C(\c1ccccn1)C1CC1c1ccccc1 (configuration not stated),"inconclusive: 3.16 µM [activator, single point]"
20,Cc1ccc(CNC(=O)C(=O)NCCC2CCCCN2S(=O)(=O)c2ccc(C)cc2)cc1 (configuration not stated),"inconclusive: 6.31 µM [inhibitor, single point]"
21,COc1ccc(-c2cc(=O)oc3cc4occ(C)c4cc23)cc1,inactive
22,COc1ccc(N2CCN(Cc3cc(=O)oc4cc5c(cc34)CCCC5)CC2)cc1,inactive
23,Cc1cccc(C(=O)N2CCN(c3ccc([N+](=O)[O-])c(N4CCOCC4)c3)CC2)c1,"inconclusive: 35.5 µM [inhibitor, single point]"

# Three structures from above, ordered by count of non-hydrogen atoms, smallest number first:
row,SMILES,Potency
3,Cc1c(Cl)cccc1NC(=S)C(=C([O-])c1ccc(Cl)s1)[n+]1ccccc1,inactive
6,Cc1ccc(-n2c(=O)[nH]cc(C(=O)Nc3ccc4c(c3)OCCO4)c2=O)cc1,"inconclusive: 18.3 µM [inhibitor, partial curve, poor fit]"
11,CNS(=O)(=O)c1cccc(C(=O)NNC(=O)CN(C)S(=O)(=O)c2ccc(Cl)cc2)c1,"inconclusive: 3.16 µM [inhibitor, single point]"

# Further results follow:

row,SMILES,Potency
1,CC(=O)Nc1ccc(OC(=O)c2cccs2)cc1,inactive
2,O=C1CC(Sc2cccs2)C(=O)N1c1ccccc1 (configuration not stated),"inconclusive: 3.55 µM [inhibitor, full curve]"
3,O=[N+]([O-])c1cccnc1NCCc1ccccc1,"inconclusive: 35.5 µM [activator, single point]"
4,O=C(N[C@H](C(=O)O)c1ccccc1)C1CCC(Cn2cnc3ccccc3c2=O)CC1 (some centres not stated),"inconclusive: 10 µM [inhibitor, partial curve, poor fit]"
5,C=CCn1c(SCC(=O)Nc2ccc(S(N)(=O)=O)cc2)nnc1-c1cnccn1,inactive
6,Cn1c(CN2CCN(CC#N)CC2)c(C#N)c2ccccc21,"inconclusive: 12.6 µM [activator, single point]"
7,CC(=O)Nc1ccc(NC(=O)C(C)OC(=O)/C=C/c2cccs2)cc1 (configuration not stated),"inconclusive: 1.26 µM [inhibitor, single point]"
8,CCCCC(=O)Nc1ccc(C(=O)N(CC)c2ccccc2C)cc1,"inconclusive: 15.8 µM [inhibitor, partial curve, poor fit]"
9,Cc1cc(C=C2C(=O)NC(=O)NC2=O)c(C)n1-c1cccnc1,inactive
10,O=C(CCCN1C(=O)/C(=C/c2ccccc2Cl)SC1=S)NNC(=O)c1ccccc1Cl,"inconclusive: 14.1 µM [inhibitor, partial curve, poor fit]"
11,CN(c1ccc(F)cc1)S(=O)(=O)c1ccc(Cl)c(C(=O)Nc2ccc3c(c2)CCC3)c1,"inconclusive: 0.126 µM [inhibitor, full curve, poor fit]"
12,O=C(CN1CCN(Cc2ccc(Cl)cc2)CC1)N/N=C/c1cccs1,inactive
13,Cc1ccc2c(c1)c1nnc(SCC(=O)N3CCN(c4ccc(F)cc4)CC3)nc1n2CC(=O)O,"inconclusive: 0.708 µM [activator, full curve, poor fit]"
14,COc1ccc(-c2csc3nc(C)n(-n4cccc4)c(=O)c23)cc1OC,"inconclusive: 1.64 µM [inhibitor, partial curve, poor fit]"
15,O=C(NCC(c1cccs1)N1CCOCC1)c1cccc([N+](=O)[O-])c1 (configuration not stated),"inconclusive: 1 µM [activator, single point]"
16,Cc1cccc(NC(=S)N(CCN2CCOCC2)Cc2ccccc2F)c1,"inconclusive: 8.91 µM [inhibitor, partial curve]"
17,COc1ccc(Cl)cc1NC(=O)CCS(=O)(=O)c1ccc(Br)cc1,"inconclusive: 3.16 µM [activator, single point]"
18,COc1ccc(/C=N\NC(=O)c2ccc(F)cc2)cc1COc1cc(F)ccc1[N+](=O)[O-],"inconclusive: 31.6 µM [inhibitor, single point]"
19,Cc1cccc(N2CCN(C(=O)COc3cc(=O)n(C)c4ccccc34)CC2)c1C,"inconclusive: 23.1 µM [inhibitor, partial curve, poor fit]"
20,CN(C)CCCCOc1ccccc1-c1ccccc1,"inconclusive: 20.6 µM [inhibitor, single point]"
21,O=C(c1nn(Cc2ccccc2)c(=O)c2ccccc12)N1CCc2ccccc2C1,"inconclusive: 22.4 µM [inhibitor, single point]"
22,CC1CCCN(Cc2cn3c(-c4cccc(Br)c4)nnc3s2)C1 (configuration not stated),inactive
23,O=C(NCCc1ccc(Cl)cc1)c1ccc(Cn2c(=O)c3cccn3c3cccnc32)cc1,inactive

row,SMILES,Potency
1,O=C/C=C/c1c(-c2ccccc2)cc2oc3ccccc3cc1-2,"inconclusive: 0.501 µM [inhibitor, full curve, poor fit]"
2,COc1ccc(/C=N/NC(=O)c2cccnc2)cc1COc1ccc([N+](=O)[O-])c(C)c1,"inconclusive: 22.4 µM [inhibitor, partial curve, poor fit]"
3,OCCNc1nc2ccccc2n1-c1ccccc1,"inconclusive: 7.3 µM [inhibitor, single point]"
4,O=C(c1ccco1)N1CCN(C2c3ccccc3-c3ccccc32)CC1,"inconclusive: 11.2 µM [inhibitor, partial curve, poor fit]"
5,COc1nc(N)nc(NC23CC4CC(CC(C4)C2)C3)n1,"inconclusive: 10.3 µM [inhibitor, single point]"
6,CC(C)COC(=O)/C(C#N)=C/c1c[nH]c2ccccc12,"inconclusive: 35.5 µM [inhibitor, single point]"
7,CC(=O)N1CCc2cc(CNS(=O)(=O)c3ccc(Br)s3)ccc21,inactive
8,Cc1ccc(-n2ncc(C(=O)NCCCN3CCN(c4cccc(Cl)c4)CC3)c2-n2cccc2)cc1,inactive
9,CC(C)NS(=O)(=O)c1ccc(OCC(=O)NCc2ccc3c(c2)OCO3)c(Cl)c1,"inconclusive: 5.01 µM [inhibitor, full curve]"
10,COc1ccc(CNC(=O)CCc2c(C)nn(-c3ccc(N4CCCCC4)nn3)c2C)c(OC)c1,inactive
11,CCOc1ccccc1NC(=O)c1ccc2[nH]c(C)c(C)c2c1,"inconclusive: 11.2 µM [inhibitor, partial curve, poor fit]"
12,O=[N+]([O-])c1ccc(NCCNc2ccc(Cl)nn2)cc1,"inconclusive: 20.6 µM [activator, partial curve, poor fit]"
13,Cc1cc(C)n(C(=O)CCC(=O)Nc2ccc(C)c(C)c2)n1,inactive
14,COc1ccccc1NC(=O)c1cccc(N2C(=O)C3C4C=CC(C4)C3C2=O)c1 (configuration not stated),inactive
15,COc1ccc(C(=O)Nc2sc(C)c(C)c2CN2CC(C)OC(C)C2)cc1 (configuration not stated),"inconclusive: 22.4 µM [activator, single point]"
16,O=C(Nc1nnc(-c2ccncc2)s1)C1CCCO1 (configuration not stated),inactive
17,CN(C)c1nc(N)nc(Nc2ccccc2C#N)n1,"inconclusive: 35.5 µM [activator, partial curve, poor fit]"
18,CN(C(=O)c1coc(=O)c2ccccc12)c1ccc(F)cc1,"inconclusive: 0.708 µM [inhibitor, full curve, poor fit]"
19,Cc1nn(C(C)(C)C)c(OC(=O)c2cccs2)c1S(=O)(=O)c1ccccc1,active: 11.2 µM
20,Clc1ccc(-c2cn3ncsc3n2)cc1,"inconclusive: 3.55 µM [activator, single point]"
21,Cc1ccccc1Nc1nc(N)nc(CSc2nc3ccccc3c(=O)n2CCCO)n1,inactive
